This is one part of the list. Small differences around the control level are noise.
compound: Cc1nc(Nc2ncc(C(=O)Nc3c(C)cccc3Cl)s2)cc(N2CCN(CCO)CC2)n1 [dasatinib]; experiment: log2 fold change of tryptic peptide abundance, ligand vs vehicle (limited proteolysis) (log2 ratio); higher = more trypsin-susceptible (destabilized); conditions: ligand concentration: 5 uM; sample: K562 cleared lysate

By UniProt entry, the sequences of proteins in these tests, tags left out. Where a name states a change or a piece, a line headed by the entry shows the natural chain unless it says otherwise.
UniProt P81274: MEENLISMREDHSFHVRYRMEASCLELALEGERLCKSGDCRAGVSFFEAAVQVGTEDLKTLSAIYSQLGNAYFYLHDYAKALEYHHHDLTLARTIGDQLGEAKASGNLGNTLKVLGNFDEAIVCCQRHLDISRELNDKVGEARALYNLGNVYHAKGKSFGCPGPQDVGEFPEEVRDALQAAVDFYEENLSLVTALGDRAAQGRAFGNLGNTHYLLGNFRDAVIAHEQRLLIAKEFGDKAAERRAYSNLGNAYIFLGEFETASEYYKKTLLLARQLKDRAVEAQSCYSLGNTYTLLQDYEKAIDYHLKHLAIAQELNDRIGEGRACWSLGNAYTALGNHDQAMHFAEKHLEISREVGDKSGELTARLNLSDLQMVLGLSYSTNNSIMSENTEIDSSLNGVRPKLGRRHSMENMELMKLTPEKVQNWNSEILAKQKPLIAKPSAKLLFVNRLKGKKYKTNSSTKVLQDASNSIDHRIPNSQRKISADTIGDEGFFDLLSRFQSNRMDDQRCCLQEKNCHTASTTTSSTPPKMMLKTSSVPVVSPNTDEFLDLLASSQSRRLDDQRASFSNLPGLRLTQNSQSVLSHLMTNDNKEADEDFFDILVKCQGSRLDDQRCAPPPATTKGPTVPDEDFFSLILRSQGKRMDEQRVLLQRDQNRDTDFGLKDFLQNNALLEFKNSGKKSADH
UniProt P78417: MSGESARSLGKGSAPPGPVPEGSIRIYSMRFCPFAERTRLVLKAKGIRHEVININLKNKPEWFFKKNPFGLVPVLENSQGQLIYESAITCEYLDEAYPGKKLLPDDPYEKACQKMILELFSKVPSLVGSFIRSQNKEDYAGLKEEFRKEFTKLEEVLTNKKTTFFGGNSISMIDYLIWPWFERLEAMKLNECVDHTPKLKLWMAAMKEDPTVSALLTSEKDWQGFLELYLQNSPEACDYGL
UniProt P69891: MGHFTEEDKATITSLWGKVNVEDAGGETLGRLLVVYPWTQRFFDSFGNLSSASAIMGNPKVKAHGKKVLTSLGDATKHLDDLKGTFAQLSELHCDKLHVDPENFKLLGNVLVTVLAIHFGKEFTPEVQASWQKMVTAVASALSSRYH
UniProt P61024, whole entry: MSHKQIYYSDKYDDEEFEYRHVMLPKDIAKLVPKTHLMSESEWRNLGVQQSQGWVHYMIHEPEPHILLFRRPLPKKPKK
UniProt P60228, whole entry: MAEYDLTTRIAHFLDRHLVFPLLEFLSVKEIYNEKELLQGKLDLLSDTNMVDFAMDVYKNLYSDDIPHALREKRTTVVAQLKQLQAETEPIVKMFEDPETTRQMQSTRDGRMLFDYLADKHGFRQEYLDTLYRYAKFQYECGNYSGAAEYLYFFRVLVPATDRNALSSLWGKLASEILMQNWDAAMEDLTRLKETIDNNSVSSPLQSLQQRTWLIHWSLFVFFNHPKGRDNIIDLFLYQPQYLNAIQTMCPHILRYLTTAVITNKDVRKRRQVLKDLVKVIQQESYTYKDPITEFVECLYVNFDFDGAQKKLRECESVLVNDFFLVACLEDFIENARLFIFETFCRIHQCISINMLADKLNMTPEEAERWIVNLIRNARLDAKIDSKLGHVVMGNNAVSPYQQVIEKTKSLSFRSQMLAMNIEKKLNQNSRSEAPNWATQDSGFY
UniProt P62873, whole entry: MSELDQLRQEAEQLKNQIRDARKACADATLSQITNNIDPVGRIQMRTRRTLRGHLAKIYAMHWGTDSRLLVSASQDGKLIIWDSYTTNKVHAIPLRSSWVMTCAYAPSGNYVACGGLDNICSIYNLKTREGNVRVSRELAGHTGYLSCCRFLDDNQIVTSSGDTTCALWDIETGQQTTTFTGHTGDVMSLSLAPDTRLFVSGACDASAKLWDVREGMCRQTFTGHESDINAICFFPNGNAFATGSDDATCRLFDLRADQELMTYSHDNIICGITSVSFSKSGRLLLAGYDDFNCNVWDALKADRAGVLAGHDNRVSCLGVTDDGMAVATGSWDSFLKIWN
UniProt P61244, whole entry: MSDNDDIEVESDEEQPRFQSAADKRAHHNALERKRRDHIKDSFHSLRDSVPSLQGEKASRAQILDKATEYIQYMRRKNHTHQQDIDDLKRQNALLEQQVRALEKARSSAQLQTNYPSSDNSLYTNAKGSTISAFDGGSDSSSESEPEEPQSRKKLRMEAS

Q: With “GPSM2 (peptide sequence: KYKTNSSTK, peptide start residue: 454) (UniProt P81274)” as the target, how does the log2 fold change read?
A: The log2 fold change was -0.638.

Q: How did the log2 fold change turn out when “UniProt P62857 (peptide sequence: MDTSRVQPIKLAR, peptide start residue: 1)” was run?
A: The log2 fold change was 0.282.

Q: Which log2 fold change does the source give for “GSTO1 (peptide sequence: VPSLVGSFIR, peptide start residue: 123) (UniProt P78417)” here?
A: The log2 fold change was 0.675.

Q: Which log2 fold change does the source give for “HBG1 (peptide sequence: VNVEDAGGETLGR, peptide start residue: 19) (UniProt P69891)” here?
A: Its log2 fold change is 0.0628.

Q: “AK2 (peptide sequence: NLETPLCK, peptide start residue: 86) (UniProt P54819)” was tested. Which log2 fold change did it give?
A: The log2 fold change was -0.145.

Q: “UniProt P61024 (peptide sequence: SHKQIYYSDKYDDEEFEYR, peptide start residue: 2)” was tested. Which log2 fold change did it give?
A: Its log2 fold change is 0.638.

Q: For “UniProt P60228 (peptide sequence: QEYLDTLYR, peptide start residue: 125)”, which log2 fold change is on record?
A: The log2 fold change was 0.296.

Q: For “UniProt P62873 (peptide sequence: IYAMHWGTDSR, peptide start residue: 58)”, which log2 fold change is on record?
A: The log2 fold change was -0.11.

Q: For “MAX (peptide sequence: NHTHQQDIDDLKR, peptide start residue: 78) (UniProt P61244)”, which log2 fold change is on record?
A: The log2 fold change was -0.23.
